{"source": "paper PMC3482241", "biological_target": "T1, NFAT1 MutDBD R423A,Y426A,E429A (UniProt Q60591)", "T1 sequence (looked up, limits assumed)": "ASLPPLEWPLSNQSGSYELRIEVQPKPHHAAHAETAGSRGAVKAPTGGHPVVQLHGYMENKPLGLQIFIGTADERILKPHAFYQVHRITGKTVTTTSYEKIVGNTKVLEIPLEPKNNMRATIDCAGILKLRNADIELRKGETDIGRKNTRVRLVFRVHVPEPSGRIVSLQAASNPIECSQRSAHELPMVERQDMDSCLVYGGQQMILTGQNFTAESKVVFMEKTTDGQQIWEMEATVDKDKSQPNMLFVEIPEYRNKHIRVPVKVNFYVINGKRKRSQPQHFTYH", "assay": "EMSA", "settings": "no binding at 10 nM, 100 nM, 500 nM or 1 uM protein, poly(dI:dC) 0.2 ug/reaction; EMSA: 10 mM HEPES pH 7.0, 125 mM NaCl, 10% glycerol, 0.25 mM DTT, 0.8 mg/mL BSA, 0.2 ug poly(dI:dC) in 20 uL, 20 min at room temperature; 4% native PAGE in 1x TBE; recombinant protein; protein details: Ni-NTA purified (His tag implied); label: 32P 5' end (T4 PNK)", "note": "For at least one entry, the source does not settle the construct or the ends of the probe. A negative result means that nothing was seen under these conditions. Protein sequences can lack the tags named with them.", "data": [{"sequence": "GCCCAAAGAGGAAAATTTGTTTCATACAG (double strand) [IL-2 promoter NFAT site oligonucleotide]", "values": [{"measurement": "binding result", "value": "no binding"}]}]}
